US20180344730A1, “MEDICAMENT FOR TREATING MENTAL AND BEHAVIOURAL DISORDERS” (Sumitomo Dainippon Pharma Co., Ltd., priority 2012, published 2018)
Structures can show the parent of a compound that is named as a salt. At least one structure is not confirmed: it was looked up by name or label, or the drawing left a doubt.

System: social-interaction-decreased mouse induced by PCP
Experiment: 3-chambered social interaction test in social-interaction-decreased mice induced by PCP
Assay type: in vivo
Settings: PCP-treated ICR mice, 1 hour before test; for time spent in chamber (S) with stranger mouse versus empty chamber (E): 10 minutes test, Student's t-test P<0.05

O=C1[C@@H]2[C@H]3CC[C@H](C3)[C@@H]2C(=O)N1C[C@@H]1CCCC[C@H]1CN1CCN(c2nsc3ccccc23)CC1 [lurasidone hydrochloride]
time spent in chamber (S) with stranger mouse versus empty chamber (E) (0.3 mg/kg oral): spent significantly longer time in chamber (S)
restoration of social interaction (1.0 mg/kg oral): restored the social-interaction-decreased mice induced by PCP (the PCP-treated mice) to a normal level of social interaction
time spent in chamber (S) with stranger mouse versus empty chamber (E) (1.0 mg/kg oral): spent significantly longer time in chamber (S)
